The supplement of paper PMC11006884
Only a part is listed here, and it is no random draw.

Chains of the proteins cited; added tags and fusions are not shown. Lines headed by an entry give the natural chain unless they say otherwise; changes in a name come on top.
UniProt P49770: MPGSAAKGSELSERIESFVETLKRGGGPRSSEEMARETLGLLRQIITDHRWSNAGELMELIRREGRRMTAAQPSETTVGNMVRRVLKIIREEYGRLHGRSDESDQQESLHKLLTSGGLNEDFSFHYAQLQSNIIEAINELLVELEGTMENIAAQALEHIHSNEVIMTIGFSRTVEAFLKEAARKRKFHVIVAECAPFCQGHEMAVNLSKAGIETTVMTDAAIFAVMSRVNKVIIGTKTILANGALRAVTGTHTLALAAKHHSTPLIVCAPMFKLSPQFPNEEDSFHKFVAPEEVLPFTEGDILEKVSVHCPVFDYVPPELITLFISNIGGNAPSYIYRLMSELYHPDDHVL
UniProt P50502: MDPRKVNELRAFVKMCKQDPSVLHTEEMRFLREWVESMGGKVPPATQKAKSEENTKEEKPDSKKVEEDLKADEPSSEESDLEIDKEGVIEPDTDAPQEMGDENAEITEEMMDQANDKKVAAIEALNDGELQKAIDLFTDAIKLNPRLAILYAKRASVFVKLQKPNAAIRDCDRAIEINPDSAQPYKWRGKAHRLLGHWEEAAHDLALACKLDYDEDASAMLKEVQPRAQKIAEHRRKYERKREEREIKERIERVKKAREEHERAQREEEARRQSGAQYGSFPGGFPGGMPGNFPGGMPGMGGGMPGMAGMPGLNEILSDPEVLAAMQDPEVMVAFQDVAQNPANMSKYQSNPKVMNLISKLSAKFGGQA
UniProt P49327, whole entry, looked up: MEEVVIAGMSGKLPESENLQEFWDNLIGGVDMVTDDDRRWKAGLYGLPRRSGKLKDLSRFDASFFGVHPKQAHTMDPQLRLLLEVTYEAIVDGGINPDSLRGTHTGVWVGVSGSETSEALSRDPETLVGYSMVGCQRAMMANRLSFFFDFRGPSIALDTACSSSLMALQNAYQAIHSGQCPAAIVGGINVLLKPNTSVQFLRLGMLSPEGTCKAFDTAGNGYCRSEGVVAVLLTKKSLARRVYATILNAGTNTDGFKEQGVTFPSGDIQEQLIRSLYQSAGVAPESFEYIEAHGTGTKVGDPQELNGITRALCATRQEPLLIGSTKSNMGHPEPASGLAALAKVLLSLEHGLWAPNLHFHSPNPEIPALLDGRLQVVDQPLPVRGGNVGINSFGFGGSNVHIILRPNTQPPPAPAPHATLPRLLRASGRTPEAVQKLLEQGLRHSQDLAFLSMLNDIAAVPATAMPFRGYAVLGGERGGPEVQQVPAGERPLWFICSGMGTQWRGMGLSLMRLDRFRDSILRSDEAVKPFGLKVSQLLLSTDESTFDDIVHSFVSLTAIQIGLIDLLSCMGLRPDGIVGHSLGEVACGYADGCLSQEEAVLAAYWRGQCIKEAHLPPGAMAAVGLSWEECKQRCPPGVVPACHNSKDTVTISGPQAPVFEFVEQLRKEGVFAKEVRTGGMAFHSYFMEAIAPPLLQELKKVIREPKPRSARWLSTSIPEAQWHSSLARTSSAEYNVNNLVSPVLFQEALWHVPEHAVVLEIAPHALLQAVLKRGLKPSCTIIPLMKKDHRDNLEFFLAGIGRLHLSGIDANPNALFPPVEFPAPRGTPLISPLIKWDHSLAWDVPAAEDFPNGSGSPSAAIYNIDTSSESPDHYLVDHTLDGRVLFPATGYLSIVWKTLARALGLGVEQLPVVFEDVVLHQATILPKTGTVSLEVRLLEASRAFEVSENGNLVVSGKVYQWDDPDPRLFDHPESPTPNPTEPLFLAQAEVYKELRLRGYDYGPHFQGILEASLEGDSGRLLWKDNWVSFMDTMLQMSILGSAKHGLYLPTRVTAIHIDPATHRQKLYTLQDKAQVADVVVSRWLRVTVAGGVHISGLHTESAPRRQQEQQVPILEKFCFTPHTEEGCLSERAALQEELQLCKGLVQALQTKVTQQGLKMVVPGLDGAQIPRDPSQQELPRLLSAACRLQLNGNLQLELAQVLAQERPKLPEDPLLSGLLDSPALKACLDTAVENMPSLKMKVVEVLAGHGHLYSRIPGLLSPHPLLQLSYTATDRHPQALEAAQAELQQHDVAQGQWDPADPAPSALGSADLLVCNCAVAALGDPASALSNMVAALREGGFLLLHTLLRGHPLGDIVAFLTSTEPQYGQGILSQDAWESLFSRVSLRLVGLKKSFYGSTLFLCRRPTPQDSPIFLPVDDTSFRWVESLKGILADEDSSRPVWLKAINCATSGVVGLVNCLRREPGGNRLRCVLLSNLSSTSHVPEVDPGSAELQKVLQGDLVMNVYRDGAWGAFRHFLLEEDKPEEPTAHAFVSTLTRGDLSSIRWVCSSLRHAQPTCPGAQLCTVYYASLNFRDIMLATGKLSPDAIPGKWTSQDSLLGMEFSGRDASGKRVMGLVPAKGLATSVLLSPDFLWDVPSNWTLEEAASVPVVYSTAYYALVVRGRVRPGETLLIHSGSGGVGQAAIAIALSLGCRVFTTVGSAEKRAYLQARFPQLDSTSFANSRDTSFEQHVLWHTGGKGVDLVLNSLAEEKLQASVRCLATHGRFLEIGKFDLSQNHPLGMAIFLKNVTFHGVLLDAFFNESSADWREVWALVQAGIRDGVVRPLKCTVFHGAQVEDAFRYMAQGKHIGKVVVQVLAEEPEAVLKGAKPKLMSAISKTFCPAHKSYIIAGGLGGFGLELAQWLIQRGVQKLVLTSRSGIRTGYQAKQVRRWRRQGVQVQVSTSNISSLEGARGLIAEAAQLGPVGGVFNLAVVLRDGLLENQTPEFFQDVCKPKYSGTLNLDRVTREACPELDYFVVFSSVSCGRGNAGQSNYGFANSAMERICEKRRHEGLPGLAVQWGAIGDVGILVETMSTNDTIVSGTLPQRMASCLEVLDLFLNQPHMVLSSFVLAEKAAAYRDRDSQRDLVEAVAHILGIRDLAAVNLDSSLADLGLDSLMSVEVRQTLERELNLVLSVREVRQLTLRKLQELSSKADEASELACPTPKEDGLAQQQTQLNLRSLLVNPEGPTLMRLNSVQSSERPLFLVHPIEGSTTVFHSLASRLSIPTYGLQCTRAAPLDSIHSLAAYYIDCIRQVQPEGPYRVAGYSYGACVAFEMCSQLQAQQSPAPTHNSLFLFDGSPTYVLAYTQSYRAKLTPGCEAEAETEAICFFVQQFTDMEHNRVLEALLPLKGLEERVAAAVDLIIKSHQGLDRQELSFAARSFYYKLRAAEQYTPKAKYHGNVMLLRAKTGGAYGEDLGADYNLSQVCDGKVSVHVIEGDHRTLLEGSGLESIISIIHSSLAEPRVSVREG
UniProt P45985: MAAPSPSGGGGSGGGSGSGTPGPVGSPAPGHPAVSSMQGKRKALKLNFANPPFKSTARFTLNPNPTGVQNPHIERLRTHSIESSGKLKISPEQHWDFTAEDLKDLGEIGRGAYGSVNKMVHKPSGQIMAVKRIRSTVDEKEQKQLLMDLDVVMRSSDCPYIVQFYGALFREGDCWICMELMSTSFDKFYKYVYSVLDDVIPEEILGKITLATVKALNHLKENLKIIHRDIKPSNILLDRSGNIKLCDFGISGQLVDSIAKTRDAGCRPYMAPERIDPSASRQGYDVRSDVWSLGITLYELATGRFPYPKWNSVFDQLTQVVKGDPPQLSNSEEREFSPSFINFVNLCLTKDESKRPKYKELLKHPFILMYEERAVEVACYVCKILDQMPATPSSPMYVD
UniProt P49915: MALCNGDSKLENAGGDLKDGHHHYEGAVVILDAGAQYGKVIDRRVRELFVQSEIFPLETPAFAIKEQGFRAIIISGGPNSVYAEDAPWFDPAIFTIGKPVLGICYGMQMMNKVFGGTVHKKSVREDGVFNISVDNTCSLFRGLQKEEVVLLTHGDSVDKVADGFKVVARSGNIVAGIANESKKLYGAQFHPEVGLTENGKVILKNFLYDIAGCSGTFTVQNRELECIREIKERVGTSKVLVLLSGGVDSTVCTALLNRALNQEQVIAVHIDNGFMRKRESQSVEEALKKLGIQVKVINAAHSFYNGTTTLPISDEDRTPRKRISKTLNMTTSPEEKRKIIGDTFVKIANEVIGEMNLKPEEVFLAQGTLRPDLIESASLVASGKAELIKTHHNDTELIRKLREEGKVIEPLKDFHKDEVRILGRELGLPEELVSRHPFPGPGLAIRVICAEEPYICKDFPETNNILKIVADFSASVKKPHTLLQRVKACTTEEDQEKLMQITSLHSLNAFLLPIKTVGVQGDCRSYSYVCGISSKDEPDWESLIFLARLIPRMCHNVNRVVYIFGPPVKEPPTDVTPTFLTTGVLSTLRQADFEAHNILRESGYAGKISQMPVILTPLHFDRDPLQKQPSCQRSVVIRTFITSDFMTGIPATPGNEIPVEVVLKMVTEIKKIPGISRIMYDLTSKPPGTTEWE
UniProt P48643, whole entry, looked up: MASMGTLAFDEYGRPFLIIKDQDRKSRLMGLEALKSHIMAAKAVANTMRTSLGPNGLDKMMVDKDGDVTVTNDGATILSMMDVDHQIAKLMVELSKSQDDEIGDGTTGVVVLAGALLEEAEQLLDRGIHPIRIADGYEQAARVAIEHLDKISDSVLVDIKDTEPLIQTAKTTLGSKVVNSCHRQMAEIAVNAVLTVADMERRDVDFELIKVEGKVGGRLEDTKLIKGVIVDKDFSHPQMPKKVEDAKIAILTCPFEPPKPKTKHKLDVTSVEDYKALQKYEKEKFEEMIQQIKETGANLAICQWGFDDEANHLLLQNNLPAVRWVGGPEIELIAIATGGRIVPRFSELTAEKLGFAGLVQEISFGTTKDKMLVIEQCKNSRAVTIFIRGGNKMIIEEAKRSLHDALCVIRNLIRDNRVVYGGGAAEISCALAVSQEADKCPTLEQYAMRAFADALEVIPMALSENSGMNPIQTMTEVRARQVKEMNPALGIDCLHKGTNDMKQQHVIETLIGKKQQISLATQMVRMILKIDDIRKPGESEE
UniProt P50402: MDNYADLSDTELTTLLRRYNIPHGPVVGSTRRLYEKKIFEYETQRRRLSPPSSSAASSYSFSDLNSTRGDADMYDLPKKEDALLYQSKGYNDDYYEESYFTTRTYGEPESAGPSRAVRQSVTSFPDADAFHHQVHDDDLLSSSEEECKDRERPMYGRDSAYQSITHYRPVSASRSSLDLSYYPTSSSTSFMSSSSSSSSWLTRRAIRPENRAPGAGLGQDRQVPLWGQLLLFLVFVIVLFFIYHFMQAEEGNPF
UniProt P50570: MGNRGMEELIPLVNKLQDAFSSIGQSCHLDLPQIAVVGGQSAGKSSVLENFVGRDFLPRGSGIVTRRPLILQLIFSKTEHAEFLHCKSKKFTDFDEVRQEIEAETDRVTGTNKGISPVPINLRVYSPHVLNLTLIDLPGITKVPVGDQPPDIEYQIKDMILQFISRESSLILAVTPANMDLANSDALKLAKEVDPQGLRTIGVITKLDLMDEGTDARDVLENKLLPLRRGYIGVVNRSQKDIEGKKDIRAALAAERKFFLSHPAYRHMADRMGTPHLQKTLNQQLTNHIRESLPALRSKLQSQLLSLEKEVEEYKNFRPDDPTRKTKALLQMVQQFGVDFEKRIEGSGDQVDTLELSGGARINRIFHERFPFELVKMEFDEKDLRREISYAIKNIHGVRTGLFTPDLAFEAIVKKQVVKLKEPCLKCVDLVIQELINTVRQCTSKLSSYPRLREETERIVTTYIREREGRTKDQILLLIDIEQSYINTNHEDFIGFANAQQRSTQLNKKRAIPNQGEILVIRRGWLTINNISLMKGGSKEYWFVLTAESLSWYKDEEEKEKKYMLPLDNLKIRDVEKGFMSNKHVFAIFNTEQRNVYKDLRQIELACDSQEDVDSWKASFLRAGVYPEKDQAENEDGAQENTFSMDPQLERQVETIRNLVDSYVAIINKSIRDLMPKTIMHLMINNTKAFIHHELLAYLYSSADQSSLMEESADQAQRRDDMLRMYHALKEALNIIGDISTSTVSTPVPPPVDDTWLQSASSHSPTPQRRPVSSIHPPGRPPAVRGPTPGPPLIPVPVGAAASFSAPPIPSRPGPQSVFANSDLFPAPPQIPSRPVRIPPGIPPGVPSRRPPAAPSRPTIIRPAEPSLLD
UniProt P49006: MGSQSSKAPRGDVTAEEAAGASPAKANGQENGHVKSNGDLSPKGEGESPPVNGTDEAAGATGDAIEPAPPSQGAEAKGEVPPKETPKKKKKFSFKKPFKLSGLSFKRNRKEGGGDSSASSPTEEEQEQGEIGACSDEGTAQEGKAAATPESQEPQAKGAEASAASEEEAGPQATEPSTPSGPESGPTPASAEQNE
UniProt P45880: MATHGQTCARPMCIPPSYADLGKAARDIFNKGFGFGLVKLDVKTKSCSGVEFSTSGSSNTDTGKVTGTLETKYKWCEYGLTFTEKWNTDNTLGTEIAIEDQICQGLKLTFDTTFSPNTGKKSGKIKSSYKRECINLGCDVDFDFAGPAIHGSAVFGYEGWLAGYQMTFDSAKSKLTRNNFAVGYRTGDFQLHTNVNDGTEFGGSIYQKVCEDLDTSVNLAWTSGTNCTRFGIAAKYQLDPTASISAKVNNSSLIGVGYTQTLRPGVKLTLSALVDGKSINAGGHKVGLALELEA

Compound: COC(=O)C#Cc1ccccc1 [methyl 3-phenylpropiolate]
Assay: log2 ratio of iodoacetamide-alkyne labeling of the cysteine site, DMSO over compound (competition); higher = stronger covalent engagement of the cysteine by the compound, active = 1 or more
Conditions: 500 µM; treatment time 1 h; system: HEK293T cell lysate
Procedure, shortened: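 HEK293T lysate (2 mg/mL) was incubated with electrophile (500 µM) or vehicle for 1 h at ambient temperature and then with iodoacetamide alkyne for 1 h. Labelled proteins were clicked to sCIP-TMT reagents, pooled, digested, enriched on streptavidin and measured by Orbitrap Eclipse LC-MS/MS with FAIMS, with FragPipe quantification. The per-cysteine log2 competition ratio is mean control-channel reporter intensity over mean compound-channel reporter intensity. Across three replicates with duplicate channels, cysteines quantified in only one replicate were excluded.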

Row | Target | log2 ratio of iodoacetamide-alkyne labeling
1 | EIF2B2 C310 (UniProt P49770) | inactive: 0.149
2 | CCT4 C295 (UniProt P50991) | inactive: 0.173
3 | FXR2 C270 (UniProt P51116) | inactive: 0.306
4 | ST13 C209 (UniProt P50502) | inactive: 0.272
5 | NUP153 C148 (UniProt P49790) | inactive: 0.324
6 | FASN C2024 (UniProt P49327) | inactive: 0.0332
7 | PREP C255 (UniProt P48147) | inactive: 0.0469
8 | UniProt P45985_C246 | inactive: 0.0512
9 | RANBP2 C188 (UniProt P49792) | inactive: 0.545
10 | GMPS C631 (UniProt P49915) | inactive: 0.369
11 | UTRN C3023 (UniProt P46939) | inactive: 0.689
12 | CLK1 C200 (UniProt P49759) | inactive: -0.0452
13 | CCT5 C181 (UniProt P48643) | inactive: 0.237
14 | EMD C147 (UniProt P50402) | inactive: 0.403
15 | RBM25 C132 (UniProt P49756) | inactive: 0.119
16 | HCFC1 C1953 (UniProt P51610) | inactive: 0.123
17 | CARS C27 (UniProt P49589) | inactive: 0.454
18 | DNM2 C27 (UniProt P50570) | inactive: 0.0839

Row | Target | log2 ratio of iodoacetamide-alkyne labeling
19 | MARCKSL1 C134 (UniProt P49006) | inactive: 0.0937
20 | FASN C2468 (UniProt P49327) | inactive: 0.138
21 | MKI67 C903 (UniProt P46013) | inactive: 0.808
22 | NASP C84 (UniProt P49321) | inactive: 0.0785
23 | YLPM1 C1967 (UniProt P49750) | inactive: 0.578
24 | GMPS C137 (UniProt P49915) | inactive: 0.217
25 | PAPOLA C293 (UniProt P51003) | inactive: 0.454
26 | MSH2 C822 (UniProt P43246) | inactive: 0.226
27 | MSH2 C333 (UniProt P43246) | active: 1.16
28 | NUP153 C1129 (UniProt P49790) | inactive: 0.282
29 | NSF C250 (UniProt P46459) | inactive: 0.28
30 | VDAC2 C76 (UniProt P45880) | inactive: 0.138
31 | GMPS C449 (UniProt P49915) | inactive: 0.151
32 | CCT5 C253 (UniProt P48643) | inactive: 0.167
33 | UniProt P48730_C255 | inactive: 0.403
34 | RANGAP1 C338 (UniProt P46060) | inactive: 0.0782
35 | CCT5 C493 (UniProt P48643) | inactive: 0.227
36 | RPL27A C70 (UniProt P46776) | inactive: 0.176

Random excerpt: 3 records from the list, in no set order.
Row | Target | log2 ratio of iodoacetamide-alkyne labeling
33 | UniProt P48730_C255 | inactive: 0.403
14 | EMD C147 (UniProt P50402) | inactive: 0.403
20 | FASN C2468 (UniProt P49327) | inactive: 0.138
